These results are taken from article doi:10.1101/2024.09.11.612445 (bioRxiv, 2024).

Protein sequences, listed by entry. Tags and fused reporters are not part of them.
UniProt Q9NZN8: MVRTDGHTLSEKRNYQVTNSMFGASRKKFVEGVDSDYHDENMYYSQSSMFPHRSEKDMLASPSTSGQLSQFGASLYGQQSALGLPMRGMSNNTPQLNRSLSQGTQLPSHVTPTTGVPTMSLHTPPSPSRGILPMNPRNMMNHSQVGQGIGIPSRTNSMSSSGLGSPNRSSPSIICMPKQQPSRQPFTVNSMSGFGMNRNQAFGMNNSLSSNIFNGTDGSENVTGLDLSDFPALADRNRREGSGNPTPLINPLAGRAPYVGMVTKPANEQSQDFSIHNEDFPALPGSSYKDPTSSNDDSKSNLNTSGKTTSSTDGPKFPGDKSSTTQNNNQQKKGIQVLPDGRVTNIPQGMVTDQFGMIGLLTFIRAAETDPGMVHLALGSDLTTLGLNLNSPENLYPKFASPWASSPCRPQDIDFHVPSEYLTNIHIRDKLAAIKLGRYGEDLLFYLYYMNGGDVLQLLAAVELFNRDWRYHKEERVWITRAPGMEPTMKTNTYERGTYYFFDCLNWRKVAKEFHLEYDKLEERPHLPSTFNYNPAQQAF
UniProt A5YKK6: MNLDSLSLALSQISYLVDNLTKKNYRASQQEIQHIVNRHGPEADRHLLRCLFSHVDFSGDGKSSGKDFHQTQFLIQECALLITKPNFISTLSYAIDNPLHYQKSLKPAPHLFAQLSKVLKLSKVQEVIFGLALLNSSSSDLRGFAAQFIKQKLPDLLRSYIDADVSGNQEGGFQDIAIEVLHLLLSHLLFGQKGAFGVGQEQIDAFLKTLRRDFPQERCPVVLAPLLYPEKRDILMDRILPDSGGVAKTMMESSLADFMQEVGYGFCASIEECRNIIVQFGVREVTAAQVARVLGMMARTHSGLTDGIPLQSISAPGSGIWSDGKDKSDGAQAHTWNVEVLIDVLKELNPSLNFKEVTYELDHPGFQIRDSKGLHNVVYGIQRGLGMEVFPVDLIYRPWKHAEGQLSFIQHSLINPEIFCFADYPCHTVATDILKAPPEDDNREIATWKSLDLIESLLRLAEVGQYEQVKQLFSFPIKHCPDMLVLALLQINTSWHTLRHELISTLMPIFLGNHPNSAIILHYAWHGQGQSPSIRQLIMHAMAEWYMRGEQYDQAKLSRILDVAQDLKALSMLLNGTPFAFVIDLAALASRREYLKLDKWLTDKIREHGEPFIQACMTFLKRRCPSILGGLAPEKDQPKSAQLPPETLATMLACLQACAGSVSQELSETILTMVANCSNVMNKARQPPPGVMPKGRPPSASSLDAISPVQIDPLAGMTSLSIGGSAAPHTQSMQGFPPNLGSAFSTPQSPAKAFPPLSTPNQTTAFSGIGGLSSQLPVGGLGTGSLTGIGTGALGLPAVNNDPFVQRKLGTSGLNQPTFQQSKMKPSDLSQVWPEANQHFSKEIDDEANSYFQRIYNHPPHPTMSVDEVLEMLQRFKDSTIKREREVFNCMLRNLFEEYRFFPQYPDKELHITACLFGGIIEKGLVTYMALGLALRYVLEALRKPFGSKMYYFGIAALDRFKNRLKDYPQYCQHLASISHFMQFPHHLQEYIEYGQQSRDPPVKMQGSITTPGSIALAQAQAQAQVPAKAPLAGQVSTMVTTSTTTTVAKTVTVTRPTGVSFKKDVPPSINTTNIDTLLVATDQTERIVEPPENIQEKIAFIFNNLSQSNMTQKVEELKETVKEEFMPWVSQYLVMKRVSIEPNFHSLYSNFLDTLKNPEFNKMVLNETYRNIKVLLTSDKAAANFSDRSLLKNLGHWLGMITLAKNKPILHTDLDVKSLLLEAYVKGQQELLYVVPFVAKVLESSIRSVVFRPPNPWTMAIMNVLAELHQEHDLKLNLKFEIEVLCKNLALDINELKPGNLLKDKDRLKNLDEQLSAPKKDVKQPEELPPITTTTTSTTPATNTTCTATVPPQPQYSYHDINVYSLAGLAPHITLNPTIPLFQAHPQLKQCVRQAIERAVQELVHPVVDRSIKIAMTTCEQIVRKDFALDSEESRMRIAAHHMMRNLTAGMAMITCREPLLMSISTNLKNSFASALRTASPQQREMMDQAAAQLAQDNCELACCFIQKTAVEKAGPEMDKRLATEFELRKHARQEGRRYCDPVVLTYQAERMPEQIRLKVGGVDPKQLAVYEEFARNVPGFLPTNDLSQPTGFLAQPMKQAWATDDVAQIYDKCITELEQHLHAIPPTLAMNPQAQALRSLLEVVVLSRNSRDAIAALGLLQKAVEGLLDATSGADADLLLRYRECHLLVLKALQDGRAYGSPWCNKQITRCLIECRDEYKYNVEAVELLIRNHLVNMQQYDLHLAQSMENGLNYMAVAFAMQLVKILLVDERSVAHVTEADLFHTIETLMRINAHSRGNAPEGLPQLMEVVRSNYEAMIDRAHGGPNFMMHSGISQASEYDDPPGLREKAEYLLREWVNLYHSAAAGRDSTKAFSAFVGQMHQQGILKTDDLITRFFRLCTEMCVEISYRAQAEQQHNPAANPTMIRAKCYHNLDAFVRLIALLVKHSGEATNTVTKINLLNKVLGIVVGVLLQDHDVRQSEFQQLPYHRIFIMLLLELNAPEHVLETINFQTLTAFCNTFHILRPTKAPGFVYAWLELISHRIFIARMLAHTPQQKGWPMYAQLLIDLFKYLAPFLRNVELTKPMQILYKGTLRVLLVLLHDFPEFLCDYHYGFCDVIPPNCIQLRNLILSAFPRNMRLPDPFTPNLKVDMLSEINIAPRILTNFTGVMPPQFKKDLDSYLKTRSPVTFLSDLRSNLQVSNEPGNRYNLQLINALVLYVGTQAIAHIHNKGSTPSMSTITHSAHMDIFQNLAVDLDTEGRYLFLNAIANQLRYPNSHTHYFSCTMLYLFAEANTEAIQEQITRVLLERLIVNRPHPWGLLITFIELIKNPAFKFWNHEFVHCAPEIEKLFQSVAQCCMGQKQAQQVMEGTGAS
UniProt O75175: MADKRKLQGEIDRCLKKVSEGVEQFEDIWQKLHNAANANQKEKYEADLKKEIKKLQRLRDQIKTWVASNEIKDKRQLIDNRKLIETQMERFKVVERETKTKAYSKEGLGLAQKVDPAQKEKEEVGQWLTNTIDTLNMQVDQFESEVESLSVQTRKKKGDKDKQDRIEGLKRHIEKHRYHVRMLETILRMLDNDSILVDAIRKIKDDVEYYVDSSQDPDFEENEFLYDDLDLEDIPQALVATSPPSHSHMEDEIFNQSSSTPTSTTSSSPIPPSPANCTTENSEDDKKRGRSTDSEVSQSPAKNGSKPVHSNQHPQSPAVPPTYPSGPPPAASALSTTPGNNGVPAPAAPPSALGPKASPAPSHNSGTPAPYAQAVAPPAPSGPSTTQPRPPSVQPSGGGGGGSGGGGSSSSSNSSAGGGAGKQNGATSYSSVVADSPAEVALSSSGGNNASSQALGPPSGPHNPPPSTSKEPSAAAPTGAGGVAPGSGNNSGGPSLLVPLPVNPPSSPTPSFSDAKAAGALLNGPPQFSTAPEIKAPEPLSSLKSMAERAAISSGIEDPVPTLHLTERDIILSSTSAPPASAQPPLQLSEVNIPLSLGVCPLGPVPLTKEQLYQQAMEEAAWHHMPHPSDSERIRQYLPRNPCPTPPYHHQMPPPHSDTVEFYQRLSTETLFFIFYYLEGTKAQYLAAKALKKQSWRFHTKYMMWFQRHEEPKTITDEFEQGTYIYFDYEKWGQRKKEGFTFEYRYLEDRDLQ

No constants are given. Whether binding was seen depends on the method and setting. In cells and extracts the contact can be indirect. A yes stands for co-enrichment or nearness to the bait. Other partners may have been found. For part of these data: A no says only that the protein was not detected with the bait. For part of these data: Where a sequence is shown, tags or fusion partners need not be part of it.

Common to all, as to assay: affinity purification with mass spectrometry
Assay [1] has as its target T1, YFP-ANKRD17 1950-2603 motif mutant (AAAAAAA 2425-2431) (human) (UniProt O75179).
T1 sequence: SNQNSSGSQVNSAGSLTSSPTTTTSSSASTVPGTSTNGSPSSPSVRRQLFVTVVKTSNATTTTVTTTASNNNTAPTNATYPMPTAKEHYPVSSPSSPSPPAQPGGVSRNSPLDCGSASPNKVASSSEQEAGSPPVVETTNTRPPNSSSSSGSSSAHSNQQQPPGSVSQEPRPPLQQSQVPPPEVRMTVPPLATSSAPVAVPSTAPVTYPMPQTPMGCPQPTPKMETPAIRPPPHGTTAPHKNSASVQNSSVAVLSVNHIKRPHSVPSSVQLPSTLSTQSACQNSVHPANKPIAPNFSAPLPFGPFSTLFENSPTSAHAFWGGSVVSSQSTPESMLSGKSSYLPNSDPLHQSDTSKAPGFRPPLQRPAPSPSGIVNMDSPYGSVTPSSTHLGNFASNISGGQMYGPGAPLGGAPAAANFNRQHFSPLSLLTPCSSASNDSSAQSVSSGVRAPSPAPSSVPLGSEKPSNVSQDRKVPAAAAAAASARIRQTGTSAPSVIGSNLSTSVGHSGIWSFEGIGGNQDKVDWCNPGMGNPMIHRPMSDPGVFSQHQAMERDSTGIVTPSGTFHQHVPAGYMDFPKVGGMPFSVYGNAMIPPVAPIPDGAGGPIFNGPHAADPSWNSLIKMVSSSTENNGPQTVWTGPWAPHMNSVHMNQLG

Assay [2] addresses T2, YFP-ANKRD17 1950-2603 wild-type (human) (UniProt O75179).
T2 sequence: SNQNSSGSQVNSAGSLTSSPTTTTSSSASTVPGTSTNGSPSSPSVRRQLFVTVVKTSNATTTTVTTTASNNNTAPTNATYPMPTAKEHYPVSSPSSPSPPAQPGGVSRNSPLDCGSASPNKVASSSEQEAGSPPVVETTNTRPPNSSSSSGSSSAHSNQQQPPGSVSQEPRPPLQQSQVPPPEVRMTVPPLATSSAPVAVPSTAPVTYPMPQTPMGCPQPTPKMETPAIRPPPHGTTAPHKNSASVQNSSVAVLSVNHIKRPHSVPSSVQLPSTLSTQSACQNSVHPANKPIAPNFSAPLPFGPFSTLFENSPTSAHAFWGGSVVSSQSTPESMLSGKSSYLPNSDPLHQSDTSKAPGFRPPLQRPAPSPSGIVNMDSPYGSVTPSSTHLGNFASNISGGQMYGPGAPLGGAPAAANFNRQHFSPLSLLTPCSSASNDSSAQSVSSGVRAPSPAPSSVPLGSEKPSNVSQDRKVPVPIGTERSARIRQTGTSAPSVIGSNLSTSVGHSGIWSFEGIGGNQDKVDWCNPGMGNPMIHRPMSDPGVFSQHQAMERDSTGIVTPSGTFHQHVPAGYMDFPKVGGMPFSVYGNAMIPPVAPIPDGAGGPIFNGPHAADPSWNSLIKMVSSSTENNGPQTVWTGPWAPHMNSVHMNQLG

Assay [3] has as its target YFP-tagged WDR33 1-525 motif mutant (all three motifs mutated) (human) (UniProt Q9C0J8).
The target of assay [4] is T3, YFP-tagged WDR33 1-525 wild-type (human) (UniProt Q9C0J8).
T3 sequence: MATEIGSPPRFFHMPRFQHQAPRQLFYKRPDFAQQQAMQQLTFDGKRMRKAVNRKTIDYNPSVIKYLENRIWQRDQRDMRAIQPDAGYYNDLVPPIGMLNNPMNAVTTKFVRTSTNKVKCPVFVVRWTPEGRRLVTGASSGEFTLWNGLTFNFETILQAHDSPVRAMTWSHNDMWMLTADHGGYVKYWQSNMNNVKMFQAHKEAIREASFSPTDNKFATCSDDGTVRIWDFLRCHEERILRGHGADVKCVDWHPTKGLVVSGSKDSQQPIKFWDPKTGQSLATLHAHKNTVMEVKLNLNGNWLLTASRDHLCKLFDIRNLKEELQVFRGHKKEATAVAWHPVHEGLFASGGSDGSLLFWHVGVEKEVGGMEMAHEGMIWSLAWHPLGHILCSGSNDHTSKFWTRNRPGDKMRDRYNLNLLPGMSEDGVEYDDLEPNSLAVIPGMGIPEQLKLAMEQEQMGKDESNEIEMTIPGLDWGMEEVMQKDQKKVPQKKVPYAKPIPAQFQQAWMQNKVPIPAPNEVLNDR

Assay [5] addresses T4, YFP-tagged full length CPSF1 wild-type (Cleavage and polyadenylation specificity factor subunit 1) (human) (UniProt Q10570).
T4 sequence: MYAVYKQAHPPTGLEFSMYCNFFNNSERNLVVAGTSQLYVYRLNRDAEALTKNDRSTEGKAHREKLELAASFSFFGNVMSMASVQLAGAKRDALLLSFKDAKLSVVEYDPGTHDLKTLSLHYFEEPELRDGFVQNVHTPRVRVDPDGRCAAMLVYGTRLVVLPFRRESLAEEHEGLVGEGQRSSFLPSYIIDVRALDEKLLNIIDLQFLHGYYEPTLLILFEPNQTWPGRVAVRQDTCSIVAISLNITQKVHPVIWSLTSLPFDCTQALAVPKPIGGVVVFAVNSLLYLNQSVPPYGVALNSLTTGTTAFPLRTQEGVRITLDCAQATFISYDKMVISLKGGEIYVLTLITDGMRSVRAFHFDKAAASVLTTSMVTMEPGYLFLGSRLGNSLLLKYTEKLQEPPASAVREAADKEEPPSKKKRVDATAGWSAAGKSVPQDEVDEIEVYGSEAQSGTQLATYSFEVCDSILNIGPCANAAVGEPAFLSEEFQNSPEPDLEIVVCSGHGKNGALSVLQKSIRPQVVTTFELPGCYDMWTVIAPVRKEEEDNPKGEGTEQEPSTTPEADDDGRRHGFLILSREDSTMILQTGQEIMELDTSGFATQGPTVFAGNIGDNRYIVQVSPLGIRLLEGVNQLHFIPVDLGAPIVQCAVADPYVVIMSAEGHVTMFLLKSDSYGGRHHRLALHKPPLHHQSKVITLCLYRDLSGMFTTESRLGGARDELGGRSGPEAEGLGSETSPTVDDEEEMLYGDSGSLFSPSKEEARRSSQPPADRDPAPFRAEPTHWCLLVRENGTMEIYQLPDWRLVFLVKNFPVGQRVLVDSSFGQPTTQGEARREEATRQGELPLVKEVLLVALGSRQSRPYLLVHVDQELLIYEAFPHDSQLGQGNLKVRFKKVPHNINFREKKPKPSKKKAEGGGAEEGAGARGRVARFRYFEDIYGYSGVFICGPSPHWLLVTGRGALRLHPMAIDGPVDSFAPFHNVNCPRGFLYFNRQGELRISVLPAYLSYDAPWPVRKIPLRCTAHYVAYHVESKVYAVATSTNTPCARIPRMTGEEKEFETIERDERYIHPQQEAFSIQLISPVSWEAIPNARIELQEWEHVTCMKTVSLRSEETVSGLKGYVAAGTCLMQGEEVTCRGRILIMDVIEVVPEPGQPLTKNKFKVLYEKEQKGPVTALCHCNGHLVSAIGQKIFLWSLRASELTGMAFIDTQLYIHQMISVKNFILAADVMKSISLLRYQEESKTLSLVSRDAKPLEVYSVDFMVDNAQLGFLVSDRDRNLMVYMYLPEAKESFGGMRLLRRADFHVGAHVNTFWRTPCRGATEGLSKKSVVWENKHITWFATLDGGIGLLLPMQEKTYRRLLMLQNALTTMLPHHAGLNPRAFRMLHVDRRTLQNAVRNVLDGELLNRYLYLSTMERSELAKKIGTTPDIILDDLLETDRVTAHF

“CNOT2, endogenous (from UniProt Q9NZN8 1-540)”: the values for the binding entry in assay [1] and in assay [2] were “no binding” and “binds”, respectively.

For “CNOT1, endogenous (from UniProt A5YKK6 1-2376)”, the values for the binding entry in assay [1] and in assay [2] were “no binding” and “binds”, respectively.

In the case of “CNOT3, endogenous (from UniProt O75175 1-753)”, the binding entry in assay [1] was “no binding”; in assay [2] it was “binds”.

B1: Cleavage stimulation factor subunit 3 (CSTF3), endogenous (protein, UniProt Q12996 1-717)
chain: MSGDGATEQAAEYVPEKVKKAEKKLEENPYDLDAWSILIREAQNQPIDKARKTYERLVAQFPSSGRFWKLYIEAEIKAKNYDKVEKLFQRCLMKVLHIDLWKCYLSYVRETKGKLPSYKEKMAQAYDFALDKIGMEIMSYQIWVDYINFLKGVEAVGSYAENQRITAVRRVYQRGCVNPMINIEQLWRDYNKYEEGINIHLAKKMIEDRSRDYMNARRVAKEYETVMKGLDRNAPSVPPQNTPQEAQQVDMWKKYIQWEKSNPLRTEDQTLITKRVMFAYEQCLLVLGHHPDIWYEAAQYLEQSSKLLAEKGDMNNAKLFSDEAANIYERAISTLLKKNMLLYFAYADYEESRMKYEKVHSIYNRLLAIEDIDPTLVYIQYMKFARRAEGIKSGRMIFKKAREDTRTRHHVYVTAALMEYYCSKDKSVAFKIFELGLKKYGDIPEYVLAYIDYLSHLNEDNNTRVLFERVLTSGSLPPEKSGEIWARFLAFESNIGDLASILKVEKRRFTAFKEEYEGKETALLVDRYKFMDLYPCSASELKALGYKDVSRAKLAAIIPDPVVAPSIVPVLKDEVDRKPEYPKPDTQQMIPFQPRHLAPPGLHPVPGGVFPVPPAAVVLMKLLPPPICFQGPFVQVDELMEIFRRCKIPNTVEEAVRIITGGAPELAVEGNGPVESNAVLTKAVKRPNEDSDEDEEKGAVVPPVHDIYRARQQKRIR
Take B1: the results for the binding entry in assay [3], in assay [4] and in assay [5] were “no binding”, “binds” and “binds”, respectively.

B2: Cleavage Stimulation Factor complex subunit CSTF1, endogenous (protein, UniProt Q05048 1-431)
chain: MYRTKVGLKDRQQLYKLIISQLLYDGYISIANGLINEIKPQSVCAPSEQLLHLIKLGMENDDTAVQYAIGRSDTVAPGTGIDLEFDADVQTMSPEASEYETCYVTSHKGPCRVATYSRDGQLIATGSADASIKILDTERMLAKSAMPIEVMMNETAQQNMENHPVIRTLYDHVDEVTCLAFHPTEQILASGSRDYTLKLFDYSKPSAKRAFKYIQEAEMLRSISFHPSGDFILVGTQHPTLRLYDINTFQCFVSCNPQDQHTDAICSVNYNSSANMYVTGSKDGCIKLWDGVSNRCITTFEKAHDGAEVCSAIFSKNSKYILSSGKDSVAKLWEISTGRTLVRYTGAGLSGRQVHRTQAVFNHTEDYVLLPDERTISLCCWDSRTAERRNLLSLGHNNIVRCIVHSPTNPGFMTCSDDFRARFWYRRSTTD
Turning to B2, the binding result is reported as “no binding” in assay [3], “binds” in assay [4] and “binds” in assay [5].
